Results from article PMC5224502.
These are yes or no findings as the source states them, for the method shown. Binding seen in cells or lysates may run through a third protein. For some of these results: Binding can be weak; no strength is given. Sequences can lack the tags named with a protein.

Amino acid sequences for entries named in this document (tags omitted). A change or cut given only in a name is not applied to a line headed by its entry.
UniProt F4I2U5: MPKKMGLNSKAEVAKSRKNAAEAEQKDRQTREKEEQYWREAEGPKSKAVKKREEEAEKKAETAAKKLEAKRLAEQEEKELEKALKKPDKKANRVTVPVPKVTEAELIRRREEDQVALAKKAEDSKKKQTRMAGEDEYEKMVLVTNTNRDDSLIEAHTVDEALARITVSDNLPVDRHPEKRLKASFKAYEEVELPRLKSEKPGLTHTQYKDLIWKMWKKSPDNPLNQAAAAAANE
UniProt O94389: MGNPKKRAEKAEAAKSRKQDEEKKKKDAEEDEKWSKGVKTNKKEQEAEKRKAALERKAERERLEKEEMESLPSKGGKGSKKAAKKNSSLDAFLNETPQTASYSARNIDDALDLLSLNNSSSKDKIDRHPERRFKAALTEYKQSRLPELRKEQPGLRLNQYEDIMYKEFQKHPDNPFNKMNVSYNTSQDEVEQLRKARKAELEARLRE
UniProt P05412: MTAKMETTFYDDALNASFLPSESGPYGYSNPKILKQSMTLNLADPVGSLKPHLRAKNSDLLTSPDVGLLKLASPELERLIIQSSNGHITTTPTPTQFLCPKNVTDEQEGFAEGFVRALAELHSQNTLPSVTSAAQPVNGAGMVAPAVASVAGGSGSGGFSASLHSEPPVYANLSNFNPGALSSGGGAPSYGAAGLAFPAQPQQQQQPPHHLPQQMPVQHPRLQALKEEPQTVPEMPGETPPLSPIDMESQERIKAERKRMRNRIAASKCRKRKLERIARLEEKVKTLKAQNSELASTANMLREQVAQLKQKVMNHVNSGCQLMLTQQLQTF

T1: HA-Pap1 (S. pombe) (UniProt Q01663)
T1 sequence: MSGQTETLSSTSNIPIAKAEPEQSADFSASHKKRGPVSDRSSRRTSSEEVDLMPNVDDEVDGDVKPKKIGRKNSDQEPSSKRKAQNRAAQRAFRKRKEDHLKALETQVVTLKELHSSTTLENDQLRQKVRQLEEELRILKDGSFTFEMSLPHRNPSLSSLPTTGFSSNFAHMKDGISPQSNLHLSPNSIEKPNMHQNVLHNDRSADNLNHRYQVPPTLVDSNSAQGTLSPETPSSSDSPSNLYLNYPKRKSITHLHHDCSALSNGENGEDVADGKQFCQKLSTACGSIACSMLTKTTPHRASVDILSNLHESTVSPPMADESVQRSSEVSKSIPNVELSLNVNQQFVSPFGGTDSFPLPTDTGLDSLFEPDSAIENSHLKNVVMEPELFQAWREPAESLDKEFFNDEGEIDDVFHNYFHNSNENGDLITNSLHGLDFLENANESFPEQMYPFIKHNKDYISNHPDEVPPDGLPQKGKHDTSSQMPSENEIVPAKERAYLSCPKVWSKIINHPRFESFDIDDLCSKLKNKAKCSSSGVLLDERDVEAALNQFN

T2: GST-Pap1 (S. pombe) (UniProt Q01663)
T2 sequence: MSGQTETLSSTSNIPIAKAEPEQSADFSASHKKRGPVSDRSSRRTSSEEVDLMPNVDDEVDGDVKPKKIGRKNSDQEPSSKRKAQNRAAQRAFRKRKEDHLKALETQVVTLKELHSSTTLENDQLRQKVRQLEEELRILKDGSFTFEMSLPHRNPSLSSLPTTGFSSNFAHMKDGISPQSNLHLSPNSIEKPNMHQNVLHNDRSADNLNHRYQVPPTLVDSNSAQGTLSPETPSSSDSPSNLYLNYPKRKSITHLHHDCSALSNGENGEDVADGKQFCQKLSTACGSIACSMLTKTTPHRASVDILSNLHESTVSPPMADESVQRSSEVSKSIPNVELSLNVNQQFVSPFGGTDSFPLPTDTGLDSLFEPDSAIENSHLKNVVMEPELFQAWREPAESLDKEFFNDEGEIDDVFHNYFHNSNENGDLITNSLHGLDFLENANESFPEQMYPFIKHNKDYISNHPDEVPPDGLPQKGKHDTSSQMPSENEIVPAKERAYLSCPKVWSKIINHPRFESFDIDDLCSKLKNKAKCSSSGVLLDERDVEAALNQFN


Assays:
HA-Pap1 (S. pombe) [1] = target: T1, HA-Pap1 (S. pombe); test: co-IP; extracts of S. pombe knock-in strain producing HA-Pap1 and FLAG-Oxs1, cells untreated; immunoprecipitated with anti-HA, detected with anti-FLAG
HA-Pap1 (S. pombe) [2] = target: T1, HA-Pap1 (S. pombe); test: co-IP; extracts of S. pombe knock-in strain producing HA-Pap1 and FLAG-Oxs1, cells treated with diamide (1 mM, 3 h) or Cd (0.1 mM, 3 h); immunoprecipitated with anti-HA, detected with anti-FLAG
HA-Pap1 (S. pombe) [3] = target: T1, HA-Pap1 (S. pombe); test: condition: only cells treated with H2O2 (0.2 mM, 5 min) instead of diamide or Cd; co-IP; extracts of S. pombe knock-in strain producing HA-Pap1 and FLAG-Oxs1, cells treated with H2O2 (0.2 mM, 5 min); immunoprecipitated with anti-HA, detected with anti-FLAG
GST-AtOxs1 (Arabidopsis) = GST-AtOxs1 (Arabidopsis) (UniProt F4I2U5); test: pull-down; GST fusion from E. coli lysate bound to MagneGST beads (4°C, 4 h) and washed four times; beads incubated overnight at 4°C with E. coli lysate expressing the His fusion; wash buffer 25 mM Tris-HCl pH 7.2, 150 mM NaCl, 1 mM EDTA, 1 mM EGTA, 1% Triton X-100, 0.5% Nonidet P-40, 1 mM DTT; western blot with anti-His; only the target purified
GST-Oxs1 (S. pombe) = GST-Oxs1 (S. pombe) (UniProt O94389); test: as above
GST-Pap1 (S. pombe) = target: T2, GST-Pap1 (S. pombe); test: as above

Molecule	binding (GST-AtOxs1 (Arabidopsis))	binding (GST-Oxs1 (S. pombe))	other results
FLAG-Oxs1 (S. pombe)			binding (HA-Pap1 (S. pombe) [1]): no binding (only cells untreated (no diamide or Cd)); binding (HA-Pap1 (S. pombe) [2]): binds; binding (HA-Pap1 (S. pombe) [3]): no binding
His-HscJun (from UniProt P05412 1-331)	binds	binds	
His-Oxs1 (from UniProt O94389)			binding (GST-Pap1 (S. pombe)): binds
His-Pap1 (protein, UniProt Q01663 1-552) MSGQTETLSSTSNIPIAKAEPEQSADFSASHKKRGPVSDRSSRRTSSEEVDLMPNVDDEVDGDVKPKKIGRKNSDQEPSSKRKAQNRAAQRAFRKRKEDHLKALETQVVTLKELHSSTTLENDQLRQKVRQLEEELRILKDGSFTFEMSLPHRNPSLSSLPTTGFSSNFAHMKDGISPQSNLHLSPNSIEKPNMHQNVLHNDRSADNLNHRYQVPPTLVDSNSAQGTLSPETPSSSDSPSNLYLNYPKRKSITHLHHDCSALSNGENGEDVADGKQFCQKLSTACGSIACSMLTKTTPHRASVDILSNLHESTVSPPMADESVQRSSEVSKSIPNVELSLNVNQQFVSPFGGTDSFPLPTDTGLDSLFEPDSAIENSHLKNVVMEPELFQAWREPAESLDKEFFNDEGEIDDVFHNYFHNSNENGDLITNSLHGLDFLENANESFPEQMYPFIKHNKDYISNHPDEVPPDGLPQKGKHDTSSQMPSENEIVPAKERAYLSCPKVWSKIINHPRFESFDIDDLCSKLKNKAKCSSSGVLLDERDVEAALNQFN	binds	binds	
His-AtbZIP10 (protein, UniProt O22763 1-411) MNSIFSIDDFSDPFWETPPIPLNPDSSKPVTADEVSQSQPEWTFEMFLEEISSSAVSSEPLGNNNNAIVGVSSAQSLPSVSGQNDFEDDSRFRDRDSGNLDCAAPMTTKTVIVDSDDYRRVLKNKLETECATVVSLRVGSVKPEDSTSSPETQLQPVQSSPLTQGELGVTSSLPAEVKKTGVSMKQVTSGSSREYSDDEDLDEENETTGSLKPEDVKKSRRMLSNRESARRSRRRKQEQTSDLETQVNDLKGEHSSLLKQLSNMNHKYDEAAVGNRILKADIETLRAKVKMAEETVKRVTGMNPMLLGRSSGHNNNNRMPITGNNRMDSSSIIPAYQPHSNLNHMSNQNIGIPTILPPRLGNNFAAPPSQTSSPLQRIRNGQNHHVTPSANPYGWNTEPQNDSAWPKKCVD	binds	binds	
